This test addresses binary complex of FGFR1c ligand-binding domain with βKlotho ectodomain (murine; human) (UniProt P11362). The experiment in a line: SPR competition; competitor on the chip: immobilized FGF21.

Amino acid sequences for entries named in this document (tags omitted). A change or cut given only in a name is not applied to a line headed by its entry.
UniProt P11362: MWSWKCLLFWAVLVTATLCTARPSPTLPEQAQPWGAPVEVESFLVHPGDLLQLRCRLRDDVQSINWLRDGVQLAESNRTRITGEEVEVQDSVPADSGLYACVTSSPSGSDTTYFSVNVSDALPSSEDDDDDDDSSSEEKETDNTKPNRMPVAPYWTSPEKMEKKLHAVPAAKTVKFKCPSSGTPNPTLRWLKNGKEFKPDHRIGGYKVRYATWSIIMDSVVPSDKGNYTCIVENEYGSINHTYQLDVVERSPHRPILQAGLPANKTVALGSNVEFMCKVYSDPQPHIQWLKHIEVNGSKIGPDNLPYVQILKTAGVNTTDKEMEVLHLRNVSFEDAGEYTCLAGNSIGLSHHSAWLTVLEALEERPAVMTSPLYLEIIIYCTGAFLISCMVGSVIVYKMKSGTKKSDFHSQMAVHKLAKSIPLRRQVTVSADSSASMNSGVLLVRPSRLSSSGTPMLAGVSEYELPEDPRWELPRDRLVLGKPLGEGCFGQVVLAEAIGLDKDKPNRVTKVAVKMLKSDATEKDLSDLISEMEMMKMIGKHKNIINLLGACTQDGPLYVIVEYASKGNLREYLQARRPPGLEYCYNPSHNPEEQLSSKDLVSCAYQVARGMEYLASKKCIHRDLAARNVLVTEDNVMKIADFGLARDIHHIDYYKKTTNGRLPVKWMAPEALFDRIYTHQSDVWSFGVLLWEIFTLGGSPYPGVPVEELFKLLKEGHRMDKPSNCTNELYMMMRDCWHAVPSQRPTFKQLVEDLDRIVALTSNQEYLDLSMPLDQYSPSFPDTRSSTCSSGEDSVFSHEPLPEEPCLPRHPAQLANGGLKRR

No constants are given. Whether binding was seen depends on the method and setting. Some results given as binding are weak or reduced against the parent protein; the word gives no strength.

B1: FGF2^ΔHBScore-FGF21^C-tail chimera (designed binder)
chain: MAAGSITTLPALPEDGGSGAFPPGHFKDPKRLYCKNGGFFLRIHPDGRVDGVREKSDPHIKLQLQAEERGVVSIKGVSANRYLAMKEDGRLLASKSVTDECFFFERLESNNYNTYRSRKYTSWYVALDQTGQYVLGSKTGPGQKAILFLPMPGLPPALPEPPGILAPQPPDVGSSDPLSMVGPSQGRSPSYAS
For the molecule B1, the binding entry was “binds”.

Source of the values: patent US9926355.
